Laboratory results: paper PMC3832600
No constants are given. Whether binding was seen depends on the method and setting. Some results given as binding are weak or reduced against the parent protein; the word gives no strength.

The chains behind the UniProt entries cited, without tags or fusion partners. Residues count along the entry.
UniProt P05673, residues 26-221: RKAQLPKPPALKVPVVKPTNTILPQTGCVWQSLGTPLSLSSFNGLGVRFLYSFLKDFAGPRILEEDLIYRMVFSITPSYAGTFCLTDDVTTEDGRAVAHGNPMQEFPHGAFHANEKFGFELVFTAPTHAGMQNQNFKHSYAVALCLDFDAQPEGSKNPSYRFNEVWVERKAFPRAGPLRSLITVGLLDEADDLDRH

Biological target: truncated Alfalfa mosaic virus coat protein (Alfalfa mosaic virus) (UniProt P05673)
Test: SEC + other: negative-stain transmission EM and DLS; VLPs assembled in planta and purified from N. benthamiana. SDS-PAGE, Western blot and N-terminal sequencing of the purified particles. Analytical SEC on an SRT-1000 column in 50 mM phosphate buffer. DLS at 25°C.

“truncated Alfalfa mosaic virus coat protein (from UniProt P05673 26-221) (domain or fragment)” was tested. Which binding did it give?
The binding was “binds”.
